The exact form of at least one protein or probe is not confirmed. At least one result comes from cells or an extract, where the contact may be indirect. For part of these data: Negatives hold for the conditions tested. For part of these data: At least one verdict rests on a figure or table, not on a statement of the authors.

By UniProt entry, the sequences of proteins in these tests, tags left out. Where a name states a change or a piece, a line headed by the entry shows the natural chain unless it says otherwise.
UniProt Q15717, whole entry: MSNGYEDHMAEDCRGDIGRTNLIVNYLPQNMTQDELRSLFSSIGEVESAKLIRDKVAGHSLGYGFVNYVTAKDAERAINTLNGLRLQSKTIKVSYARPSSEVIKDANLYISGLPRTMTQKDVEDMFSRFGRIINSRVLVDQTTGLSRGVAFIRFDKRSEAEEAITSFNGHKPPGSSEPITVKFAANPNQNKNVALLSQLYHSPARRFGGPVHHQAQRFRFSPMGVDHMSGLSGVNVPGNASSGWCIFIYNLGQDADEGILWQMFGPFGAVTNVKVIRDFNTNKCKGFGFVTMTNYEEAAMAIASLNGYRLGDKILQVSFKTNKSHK
UniProt Q08211, whole entry: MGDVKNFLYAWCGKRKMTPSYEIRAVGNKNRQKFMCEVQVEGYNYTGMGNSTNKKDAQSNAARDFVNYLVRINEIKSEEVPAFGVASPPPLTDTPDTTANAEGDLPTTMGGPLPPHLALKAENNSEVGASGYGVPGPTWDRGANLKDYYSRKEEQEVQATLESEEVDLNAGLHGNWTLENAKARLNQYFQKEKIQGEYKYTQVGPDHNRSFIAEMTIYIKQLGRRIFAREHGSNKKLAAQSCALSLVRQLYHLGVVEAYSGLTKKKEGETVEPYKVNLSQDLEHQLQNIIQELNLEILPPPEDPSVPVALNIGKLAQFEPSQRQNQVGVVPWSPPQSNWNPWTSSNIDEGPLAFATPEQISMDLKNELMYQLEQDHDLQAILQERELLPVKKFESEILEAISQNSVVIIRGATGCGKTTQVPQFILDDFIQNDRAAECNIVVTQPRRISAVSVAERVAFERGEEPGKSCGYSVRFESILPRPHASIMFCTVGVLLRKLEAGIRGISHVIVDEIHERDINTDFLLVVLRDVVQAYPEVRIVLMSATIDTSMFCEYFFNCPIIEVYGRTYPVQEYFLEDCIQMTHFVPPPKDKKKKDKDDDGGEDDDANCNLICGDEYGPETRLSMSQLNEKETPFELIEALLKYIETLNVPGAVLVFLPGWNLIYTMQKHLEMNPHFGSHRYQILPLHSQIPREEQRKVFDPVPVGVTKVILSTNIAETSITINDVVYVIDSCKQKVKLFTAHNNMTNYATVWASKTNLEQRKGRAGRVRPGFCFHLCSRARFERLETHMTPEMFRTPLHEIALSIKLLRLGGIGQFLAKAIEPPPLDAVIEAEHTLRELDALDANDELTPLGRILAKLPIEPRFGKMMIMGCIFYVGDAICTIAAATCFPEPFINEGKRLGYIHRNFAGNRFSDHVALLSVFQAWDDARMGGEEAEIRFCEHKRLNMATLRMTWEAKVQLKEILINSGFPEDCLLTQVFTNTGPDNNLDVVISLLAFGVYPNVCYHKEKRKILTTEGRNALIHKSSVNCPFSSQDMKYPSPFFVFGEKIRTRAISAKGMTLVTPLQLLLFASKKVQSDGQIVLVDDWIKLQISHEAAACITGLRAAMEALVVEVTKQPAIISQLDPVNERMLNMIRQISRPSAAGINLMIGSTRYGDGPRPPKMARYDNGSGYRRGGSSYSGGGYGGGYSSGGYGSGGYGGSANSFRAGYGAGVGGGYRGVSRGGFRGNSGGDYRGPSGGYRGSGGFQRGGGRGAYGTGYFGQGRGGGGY
UniProt Q96DH6: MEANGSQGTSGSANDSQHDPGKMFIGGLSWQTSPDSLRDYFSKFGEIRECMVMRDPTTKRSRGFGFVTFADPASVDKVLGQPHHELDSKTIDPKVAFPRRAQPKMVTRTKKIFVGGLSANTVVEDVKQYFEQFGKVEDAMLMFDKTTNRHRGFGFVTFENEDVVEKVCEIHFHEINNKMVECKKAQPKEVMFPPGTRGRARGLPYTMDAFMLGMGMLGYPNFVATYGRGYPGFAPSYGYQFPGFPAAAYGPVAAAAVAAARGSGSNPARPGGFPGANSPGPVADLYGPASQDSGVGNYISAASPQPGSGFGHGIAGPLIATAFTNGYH

In data set [1] the target is mCherry-HuR (UniProt Q15717). Briefly: RP-CONA bead pull-down, fluorescence. The settings on record: Covalent pull-down: HeLa extract, beads washed with 2 M KCl, Buffer G (20 mM Tris-HCl pH 7.5, 137 mM NaCl, 1.5 mM MgCl2) and Roeder D, protein in a lysate after overexpression, protein details: mCherry, label: 5' FITC, 3' biotin.
The target in data set [2] is DHX9 (endogenous) (human (HeLa)) (UniProt Q08211). Briefly: pull-down, western blot. The settings on record: HeLa extract, reduced by 100 uM gossypol; 3' periodate-oxidized, coupled to adipic acid dihydrazide-agarose; Covalent pull-down: HeLa extract, beads washed with 2 M KCl, Buffer G (20 mM Tris-HCl pH 7.5, 137 mM NaCl, 1.5 mM MgCl2) and Roeder D; protein in an extract.

For data set [3], the target named is HuR (endogenous) (human (HeLa)) (UniProt Q15717). The data set is described as follows: pull-down, western blot. The settings on record: HeLa extract, reduced by 100 uM quercetin or luteolin; 3' periodate-oxidized, coupled to adipic acid dihydrazide-agarose; Covalent pull-down: HeLa extract, beads washed with 2 M KCl, Buffer G (20 mM Tris-HCl pH 7.5, 137 mM NaCl, 1.5 mM MgCl2) and Roeder D; protein in an extract.

Data set [4] concerns the target MSI2 (endogenous) (human (HeLa)) (UniProt Q96DH6). Briefly: pull-down, SILAC mass spectrometry. Particulars: heavy HeLa extract, reduced by quercetin; 3' periodate-oxidized, coupled to adipic acid dihydrazide-agarose; Covalent pull-down: HeLa extract, beads washed with 2 M KCl, Buffer G (20 mM Tris-HCl pH 7.5, 137 mM NaCl, 1.5 mM MgCl2) and Roeder D; protein in an extract.

The target in data set [5] is mCherry-HuR (UniProt Q15717). The data set is described as follows: competition (RP-CONA). Particulars: untagged competitor vs N1; RP-CONA: RNA coupled to His-streptavidin Ni-NTA beads in PBS, 0.01% Triton X-100, 4 C; HEK293T cell extract; protein in a lysate after overexpression; protein details: mCherry.
The next data set has as its system Lin28a-GFP. Briefly: RP-CONA bead pull-down, fluorescence. Particulars: reduced by anti-Lin28a antibody; Covalent pull-down: HeLa extract, beads washed with 2 M KCl, Buffer G (20 mM Tris-HCl pH 7.5, 137 mM NaCl, 1.5 mM MgCl2) and Roeder D; protein in a lysate after overexpression; protein details: GFP (pEGFP-N1); label: 5' Cy5, 3' biotin.

As to “AUUAUUUAUUAUUUAUUUAUUAUUUA [FITC-TNFα-ARE-bio]”, the binding result in the data set with mCherry-HuR [1] (inhibited by quercetin) is reported as “binds”.
In the case of “CUAAAUCCUCACUAUUUUUUUGUUGCUG [FITC-αSyn-ARE-bio]”, the binding result with mCherry-HuR [1] (50 nM mCherry-HuR, inhibited by high quercetin) is given as “binds”.
Regarding “UGUUGUUCUGUGAAGCCACAGAUGGGACAACAAA [FITC-pri-miR-7-1/30a-TL-bio]”, the binding result with mCherry-HuR [1] was “no binding”.
For the sequence “UGUUGUUUUUAGAUAACUAAAUCGACAACAAA [FITC-pri-miR-7-1-CTL-bio]”, the binding result with mCherry-HuR [1] (inhibited by quercetin (inhibitor IC50 2.15 ± 0.16 uM) and luteolin (inhibitor IC50 2.03 ± 0.25 uM)) is “binds”.
On to “UGUUGUUUUUAGAUAACUAAAUCGACAACAAA [pri-miR-7-1-CTL periodate-coupled]”, for which the binding result in data set [2], in data set [3] and in data set [4] was “binds” in each case.
Regarding “UGUUGUUUUUAGAUAACUAAAUCGACAACAAA [pri-miR-7-1-CTL untagged]”, the binding result with mCherry-HuR [5] is “binds”.
Regarding “UUAGGGUCACACCCACCACUGGGAGAU [Cy5-pre-let-7a-1-CTL-bio]”, the binding result in the data set with Lin28a-GFP is given as “binds”.

(Values after PMC8216281, “RNA pull-down confocal nanoscanning (RP-CONA) detects quercetin as pri-miR-7/HuR interaction inhibitor that decreases α-synuclein levels” (Nucleic Acids Research, 2021).)
